The values are deposited in ChEMBL (CHEMBL3988442, “University of Dundee, Small-Polar-MMV Screening Library” (2021)).

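Cell assay of Leishmania donovani living inside macrophages; the read-out is not stated. Tested at 30 µM. Direction is inferred from retests: higher values go with stronger inhibition. Size under these conditions: about 69,000 compounds, about 1,000 of them at 50% or above in at least one test.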

Results are given as percent effect. How 0% and 100% were set is not recorded. Most values in the screen are low, and negative values occur. The compounds are a random part of those screened. Two or more numbers in one place are separate tests of the same structure; such repeats can differ widely.

| Compound | effect |
|---|---|
| `Cc1ccc2c(c1)nc1n2[C@@H](CNC(=O)c2ccccn2)COC1` | -0.3769% |
| `CCC(C)NC(=O)CCc1ccnc2ccccc12` (configuration not stated) | 5.92% |
| `O[C@H]1Cc2ccccc2[C@H]1Nc1ncccc1C(F)(F)F` | 19.23% |
| `O=C(O)C(F)(F)F.[H][C@@]12C[C@H](C(=O)NC)CN(Cc3ccc(C)o3)[C@]1([H])CCO2` | 1.251% |
| `NC(=O)CCSc1ccccc1NCc1ccc(Cl)s1` | 57.16% |
| `CC(c1cccc(S(N)(=O)=O)c1)N(C)CCc1ccccc1` (configuration not stated) | 27.92% |
| `Cc1cnn(CC2CCCN2C(=O)c2cc(C)no2)c1` (configuration not stated) | 8.1% |
| `CCCc1nc(C)cc(N2CCC3(CCC(=O)N(CCO)C3)CC2)n1` | 33.27% |
| `CCOc1ccnc(NCCc2nc(C)cc(=O)[nH]2)n1` | -39.09% |
| `O=C(O)C(F)(F)F.[H][C@]12CCN(C(C)=O)CC[C@@]1([H])S(=O)(=O)N(Cc1ccncc1)C2` | 7.128% and -61.5% |
| `Cc1cc2n(n1)CC(CNCc1ccc(Oc3ccccc3)nc1)CN2` (configuration not stated) | 16.99% |
| `CCSCc1cccc(NCc2cccnc2)c1` | 15.89% |
| `CC(C)[C@H]1CN(S(C)(=O)=O)C[C@@H]1NC(=O)c1ccnc(N)c1` | 8.819% |
| `CCC(C)N(Cc1ccncc1)C(=O)CCC(=O)OC` (configuration not stated) | -18.87% |
| `COc1ccc(CNCc2ccnc(N3CCCCC3)c2)cc1OC` | 45.45% |
| `[H][C@@]12CC(=O)/C(=C(/C)NC(=O)c3ccco3)[C@]1([H])C2(C)C` | 30.64% |
| `Cc1cnn(CC2CCCN2C(=O)c2cccc3c2OCO3)c1` (configuration not stated) | 22.12% |
| `CC(C)N(CCCNC(=O)C1CCOCC1)S(C)(=O)=O` | 11.79% |
| `OCCN1CCN(CC(O)c2ccc(C(F)(F)F)cc2)CC1` (configuration not stated) | 28.06% |
| `Cc1nn(C)c2c(NC3CCCC3)nc(C3CC3)nc12` | 18.14% |
| `O=c1oc(-c2ccc(F)cc2)nn1CCc1ccncc1` | 8.449% |
| `COc1ccc(CCNC(=O)C2CCCOC2)c(Cl)c1` (configuration not stated) | 8.555% |
| `CN(Cc1ccco1)C(=O)CN1CCOC(Cn2cccn2)C1` (configuration not stated) | -1.493% |
| `CN(C)CCOCC1CN(C(=O)c2cccnc2)Cc2ccnn2C1` (configuration not stated) | 2.078% |
| `CC(C)n1ccnc1CN1CCCC1c1cccc(-n2ccnc2)n1` (configuration not stated) | 7.105% and 12.84% |
| `CN1CCC(CN2CCC3(CCCN(Cc4ccoc4)C3)C2=O)CC1.O=C(O)C(F)(F)F.O=C(O)C(F)(F)F` (configuration not stated) | 21.46% |
| `CC1c2ccsc2CCN1Cc1cc2c(cc1O)OCO2` (configuration not stated) | -10.37% |
| `Cc1cccnc1NC(=O)C1CCCN(c2cccc(C(F)(F)F)n2)C1` (configuration not stated) | 18.88% |
| `CSCCN(C)Cc1ccc(F)cc1C#N` | -18.57% |
| `Cc1c(C(=O)N(C)C)cccc1N(C)S(C)(=O)=O` | 4.538% |
| `Cc1ncc(CN(C)C(=O)Nc2ccc(CN3CCOC3=O)cc2)s1` | -0.1436% |
| `N#CC1(C(=O)N2CCN(c3nccs3)CC2)CCCCC1` | 8.167% |
| `O=C(O)C(F)(F)F.[H][C@@]12CN(Cc3ccc(OC)cc3)C[C@]1([H])[C@@H]2CC(=O)N1CCCC1` | 6.55% |
| `CC(=O)N1CCN(c2cc(C3CN(C(C)=O)CCO3)nc(C)n2)CC1` (configuration not stated) | 2.386% |
| `CC(C)c1nccn1CCCNC(=O)c1ccc(N(C)C)nc1` | 11.08% |
| `CC(C)CNC(=O)C1(Cc2ccccc2-c2ccccc2)CCNC1` (configuration not stated) | 28.66% and 30.52% |
| `Cc1ccc(C(=O)Nc2cnn(CC(=O)NC3CCCC3)c2)c(=O)[nH]1` | 33.95% |
| `COc1ccc(CSCC(O)CO)c(Cl)c1` (configuration not stated) | 3.198% |
| `Cn1ccc(C(=O)N2CCCC(Cc3cccc4cccnc34)C2)n1` (configuration not stated) | 6.557% and -16.58% |
| `O=C(c1cccnc1-n1cncn1)N1CCc2ccccc2C1` | 2.397% |
| `CCNC(=O)NCC(CC)(OC)c1ccccc1` (configuration not stated) | 12.32% and -1.977% |
| `NC(=O)c1cc2c(nc1CCOCc1ccccc1)CCC2` | 16.65% |
| `Cc1cc(CN2CCCC2c2noc(C3CC3)n2)c2ccccc2n1` (configuration not stated) | 23.42% |
| `O=C(O)C(F)(F)F.O=C1COC2(CCN(Cc3ccoc3)CC2)CN1c1ccsc1` | 21.88% |
| `[H][C@@]12CS(=O)(=O)C[C@]1([H])N(CC(=O)N1CCCCC1)CCN2c1ncccn1` | 8% |
| `CC(C)Oc1cc(N2CCN(Cc3ccsc3)C(CCO)C2)nc(N)n1` (configuration not stated) | 11.13% |
| `Cc1ccc(C(=O)O)cc1S(=O)(=O)N(C)c1cccc(C#N)c1` | 3.408% |
| `COc1ncccc1NC(=O)N(Cc1ccc(C)o1)C1CC1` | 53.3% |
| `O=C(O)C1CCCCN1C(=O)c1cccc(C(F)(F)F)c1` (configuration not stated) | 16.63% |
| `COc1cccc(-c2cc(CN)ccc2F)c1F` | -3.338% |
| `COc1ccc(CN(C)C2CCN(S(C)(=O)=O)CC2)c2cccnc12` | 18.14% |
| `[H][C@@]12CCN(C(=O)c3c(C)noc3C)C[C@]1(c1nc(C)no1)CCO2` | 12.96% |
| `CNC(=O)c1sc2ncccc2c1C1CCN(C(=O)CCOC)C1` (configuration not stated) | 0.8211% |
| `CC(=O)N1CCCC(C(=O)Nc2ccccc2Cc2ccccc2)C1` (configuration not stated) | 18% |
| `COC(C)(C)CNC(=O)N(C)Cc1nc(-c2ccccc2)c[nH]1` | -3.877% |
| `[H][C@@]12CC[C@H](Oc3cccc(F)c3)[C@]1([H])CN(C(=O)c1cccnn1)C2` | -8.521% |
| `Cc1ccc2c(c1)C(=O)NCC1(CCN(C(=O)c3cc(C)no3)CC1)O2` | 77.82% |
| `CN(C)C(=O)C1(c2cnccn2)CCCN1C(=O)Cc1ccsc1` (configuration not stated) | 25.36% |
| `O=C(O)C(F)(F)F.O=C(O)C(F)(F)F.O=C(O)C(F)(F)F.[H][C@@]12CO[C@@H](CN3CCN(C)CC3)[C@]1([H])CCN(CCc1ccccc1)C2` | 8.631% |
| `CCOc1ncccc1CNCc1c(C(C)C)nn(C)c1N(C)C` | -20.83% |
| `Cc1ccnc(C2(C)CCCN2S(=O)(=O)c2c(C)noc2C)n1` (configuration not stated) | 5.333% |
| `O=C(NCCNc1ncccn1)c1ccc(-c2ccco2)[nH]c1=O` | 10.2% |
| `CC(C)c1cc(C(=O)N2CCc3ccccc3C2C(=O)O)nn1C` (configuration not stated) | 31.31% |
| `CC(=O)CN1CC2(CCNCC2)COc2ccccc2S1(=O)=O.O=C(O)C(F)(F)F` | 4.835% |
| `CC(C)(N)C(=O)N1CCCC(C(=O)c2ccc(C(C)(C)C)cc2)C1` (configuration not stated) | 91.24% |
| `O=C(O)c1cnc(OCC2CC2)c(Cl)c1` | 5.164% |
| `NC(=O)C1CCN(C(=O)NC(Cc2ccccc2)C(F)(F)F)CC1` (configuration not stated) | 20.44% |
| `COCCNC(=O)Cn1ccc2sc(C)cc2c1=O` | 9.417% |
| `Fc1ccccc1CN1CCC[C@H](Cn2nnc(-c3cccs3)n2)C1` | -34.9% |
| `CCC(C)(C)NC(=O)CN(C)C(c1cccc(F)c1)c1ccccn1` (configuration not stated) | -30.25% |
| `CCOC(=O)CCC(=O)N1CCC(Oc2ccc(C(F)(F)F)cn2)CC1` | 22.1% |
| `O=C(Cn1cc(-n2cccc2)cn1)NCC1CCC1` | 2.745% and 34.25% |
| `CCc1csc(CCNC(=O)CC2CCN(C(C)C)CC2)n1` | -12.3% |
| `[H][C@@]12CN(Cc3ccccn3)C(=O)N1CCN(C1CCN(C(C)=O)CC1)C2` | 22.26% |

The first 5 entries again:

Compound,effect
Cc1ccc2c(c1)nc1n2[C@@H](CNC(=O)c2ccccn2)COC1,-0.3769%
CCC(C)NC(=O)CCc1ccnc2ccccc12 (configuration not stated),5.92%
O[C@H]1Cc2ccccc2[C@H]1Nc1ncccc1C(F)(F)F,19.23%
O=C(O)C(F)(F)F.[H][C@@]12C[C@H](C(=O)NC)CN(Cc3ccc(C)o3)[C@]1([H])CCO2,1.251%
NC(=O)CCSc1ccccc1NCc1ccc(Cl)s1,57.16%